Source: paper PMC9068813

System: NELF-C patch mutant complex R291Q,K315M,K371M,K372M,K374M,K384M,K388M,R419Q,R506Q,NELF-C:
Test: EMSA (NELF release from PEC)
Settings: 20 mM Na-HEPES pH 7.4, 100 mM NaCl, 25 mM KCl, 3 mM MgCl2, 2 mM DTT, assembly 30 °C, eRNA incubation 15-20 min at room temperature, 3.5% native PAGE 0.5x TBE at 4 °C, recombinant protein, protein details: His-tag (Ni-NTA purified)

| Sequence | binding result (weaker than with ΔRRM) | binding result (hardly any release) |
| --- | --- | --- |
| GCGGUGAGAGUGAUUUUGUAACUCUAAAGUUACAGAGGGUUUUGUUGUGUUUUUAAUCAAGAGCCCUGGUUUUGAUUUGUGGGUAAUCUUUCUUUAAACCUCGCCCAUUUCCGGCCUGGUGACCUGGGCCACUUUCUCAUGUUGACCCAGAUGAUCCUCAGUAGCAAGAACAAAAGGACAACAGAUGUGGAAACACUCAA [Nr4a1-(a) eRNA 1-200] | binds more weakly | – |
| GCGGUGAGAGUGAUUUUGUAACUCUAAAGUUACAGAGGGUUUUGUUGUGUUUUUAAUCAAGAGCCCUGGUUUUGAUUUGUGGGUAAUCUUUCUUUAAACC [Nr4a1-(a) eRNA 1-100] | – | binds more weakly |

The exact form of at least one protein or probe is not confirmed. The comparison behind a weaker result is the experiment's own reference, which may not be listed here.
